From PubChem BioAssay AID504456 (NMMLSC, 2011)
This is one part of the list. The main result of the screen is listed elsewhere. These columns were measured beside it and carry no call.

test: wild-type yeast growth inhibition sparing TORC1 bypass cells, mechanism study for yeast TOR pathway GFP screen, BY4741 wild type, TORC1 bypass strain (AID 504456); conditions: S. cerevisiae BY4741 spot growth rating, 48-72 h, at 30 µM

Compound	growth rating (0-3)
Cc1ccc(S(=O)(=O)c2ncccc2[N+](=O)[O-])cc1	3
CNc1nc(N)c([N+](=O)[O-])c(Nc2cc(OC)ccc2OC)n1	3
Nc1nc(Nc2ccccc2)nc(Nc2cccc(F)c2)c1[N+](=O)[O-]	3
COc1ccc(C(=O)NNC(=S)NC(=O)/C=C/c2cccs2)cc1	3
CNc1nc(N)c([N+](=O)[O-])c(Nc2ccc(F)cc2)n1	3
CNc1nc(N)c([N+](=O)[O-])c(Nc2ccccc2)n1	3
C/C(=N\NC(=O)c1cccc(Br)c1)c1ccccn1	3
CNc1nc(N)cc(Oc2cccc(Cl)c2)n1	3
CSc1nnc2c3cc(F)ccc3n(C)c2n1	3
Cc1c(C(=O)Nc2nc(-c3ccccn3)cs2)oc2ccccc12	3
CNc1nc(N)c([N+](=O)[O-])c(Nc2cccc(Cl)c2)n1	3
O=C(Nc1nc(-c2ccccn2)cs1)c1cc2ccccc2o1	3
O=c1/c(=C/c2cccc3ccccc23)sc2ncnn12	3
CNc1nc(N)cc(Nc2cccc(Cl)c2)n1	3
Oc1c(I)cc(Cl)c2cccnc12	0
O=[N+]([O-])c1cc(Cl)c2cccnc2c1O	3
CNc1nc(N)c([N+](=O)[O-])c(Nc2ccc(Cl)cc2)n1	3
CCN(CC)C(=O)Oc1ccnc2cc(Cl)ccc12	3
O=C(Oc1c(Cl)cc(Cl)c2cccnc12)c1cccc([N+](=O)[O-])c1	0
CCC(C)Nc1nc(N)c([N+](=O)[O-])c(Nc2cccc(F)c2)n1 (centres undefined)	3

Compound	growth rating (0-3)
Cc1cc(C(=O)COC(=O)c2ccc[nH]c2=O)c(C)n1-c1ccccc1F	3
CCOC(=O)CS(=O)(=O)c1nc(-c2ccccc2)cc(C(F)(F)F)n1	3
Cc1cc(C(=O)Nc2nc(-c3ccccn3)cs2)ccc1[N+](=O)[O-]	3
CCOC(=O)c1c(N)nc(NC)nc1Nc1cccc(F)c1	3
COc1ccc([N+](=O)[O-])c(S(=O)(=O)c2ccc(Cl)cc2)n1	3
Cc1ccc(C(c2cc(Cl)c3cccnc3c2O)N2CCN(C)CC2)cc1 (centres undefined)	3
O=C(COc1ccc(F)cc1Cl)Nc1nc(-c2ccccn2)cs1	3
Clc1cc(Cl)cc(Nc2cc(NC3CCCCC3)nc(NCc3ccccc3)n2)c1	3
Nc1nc(NCc2ccccc2)nc(Nc2cccc(F)c2)c1[N+](=O)[O-]	3
Cc1cc(Nc2cc(Nc3ccccc3)nc(NCc3ccccc3)n2)n[nH]1	3
O=C(c1ccc(C(=O)N2CCCc3ccccc32)s1)N1CCCc2ccccc21	2
Nc1cc(Oc2cccc(Cl)c2)nc(NCc2ccccc2)n1	0
CNc1nc(N)c([N+](=O)[O-])c(NC2CCCCC2)n1	3
Nc1nc(NCC2CCCO2)nc(Nc2cccc(F)c2)c1[N+](=O)[O-] (centres undefined)	3
CNc1nc(N)c([N+](=O)[O-])c(NCC2CCCO2)n1 (centres undefined)	3
CCCOc1ccc(C(=O)NNC(=S)NC(=O)CC)cc1	3
O=[N+]([O-])c1cc(O)c2ncccc2c1	3
CC(C)(C)n1nc(-c2ccc(F)cc2)c2c(N)ncnc21	3
CCCCC(=O)NNC(=S)NC(=O)c1ccc(C)cc1	3

Grouped by structure, the entries above with an NH in an aromatic ring.
Compound	growth rating (0-3)
Cc1cc(C(=O)COC(=O)c2ccc[nH]c2=O)c(C)n1-c1ccccc1F	3
Cc1cc(Nc2cc(Nc3ccccc3)nc(NCc3ccccc3)n2)n[nH]1	3
